One molecule from article PMC12890720 can be followed below.

Results are given in words; binding and its absence hold for the method and conditions named. Binding seen in cells or lysates may run through a third protein. Some entries that bind do so weakly or less than the wild type.

The target of this assay is T1, DNAJB12 (human (endogenous in HepG2.2.15 and HepG2)) (UniProt Q9NXW2).
T1 sequence: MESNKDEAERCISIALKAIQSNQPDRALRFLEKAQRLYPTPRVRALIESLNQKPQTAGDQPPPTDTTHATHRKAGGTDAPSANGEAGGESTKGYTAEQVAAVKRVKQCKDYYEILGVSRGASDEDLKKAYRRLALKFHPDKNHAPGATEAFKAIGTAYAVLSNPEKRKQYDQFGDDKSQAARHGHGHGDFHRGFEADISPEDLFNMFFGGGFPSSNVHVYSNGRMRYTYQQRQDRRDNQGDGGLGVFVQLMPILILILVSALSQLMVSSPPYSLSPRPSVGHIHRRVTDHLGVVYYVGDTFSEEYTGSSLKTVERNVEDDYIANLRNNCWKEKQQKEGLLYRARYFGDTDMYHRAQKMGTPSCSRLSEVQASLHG
Description: pull-down; HepG2.2.15 lysates (shCtrl or shDNAJB12; parental or expressing DNAJB12-ΔDUF) incubated with 50 nM biotinylated REP 2139 (ligand of DNAJB12) and streptavidin beads or protein G beads with anti-biotin antibody, overnight at 4°C; non-biotinylated REP 2139 as negative control; western blot. In general terms: Immunoblotting shows a protein as a band on a membrane.

B1: DNAJB12-ΔDUF (domain or fragment, UniProt Q9NXW2 1-269)
chain: MESNKDEAERCISIALKAIQSNQPDRALRFLEKAQRLYPTPRVRALIESLNQKPQTAGDQPPPTDTTHATHRKAGGTDAPSANGEAGGESTKGYTAEQVAAVKRVKQCKDYYEILGVSRGASDEDLKKAYRRLALKFHPDKNHAPGATEAFKAIGTAYAVLSNPEKRKQYDQFGDDKSQAARHGHGHGDFHRGFEADISPEDLFNMFFGGGFPSSNVHVYSNGRMRYTYQQRQDRRDNQGDGGLGVFVQLMPILILILVSALSQLMVSS
Regarding B1, the binding result is given as “binds”.
